The list shows a part of the results. Further columns of the screen follow, without active or inactive calls. The list favours compounds with an active or inconclusive main result. Words in brackets tell the shape of the fitted curve; partial curves, single points and poor fits give uncertain potencies.

This experiment in a line: qHTS Assay for Lipid Storage Modulators in Drosophila S3 Cells.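 As to cell number change: cells counted by Cell Tracker Red CMTPX staining in the red channel.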 The conditions noted are these: BODIPY lipid droplet fluorescence, 18-24 h; for cell number change: measured here: cell count max response, cells fed with added oleic acid. A digest of the protocol:
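Drosophila S3 cells got compounds at several concentrations plus oleic acid (400 uM solution). Laser-scanning cytometry with 488 nm excitation read lipid droplets at 500-530 nm and cells at 575-640 nm. Percent activity was relative to 20 uM Triacsin C.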
Background: qHTS replaces the single test concentration by a dilution series.

The mark [1] stands for this setting: measured here: cell number channel AC50, cells fed with added oleic acid.
[2] abbreviates: measured here: lipid fluorescence (Fed channel) AC50, cells fed with added oleic acid.

Broadly, the AC50 is the concentration at which the activity in the assay is half-maximal. The low end stands for greater potency, the high end for weaker potency. Regarding `COc1cccc(/C=N/NC(=S)NCc2ccco2)c1OC`, the cell number change turned out to be 14.3%. In addition, the AC50 under setting [1] is 0.461 µM [rising, full curve]. Under setting [2], the AC50 is 0.517 µM [rising, full curve].

Turning to `O=S(=O)(NCC1CCN(c2ccc(S(=O)(=O)N3CCOCC3)cc2)CC1)c1ccc(F)cc1`, the cell number change is -11.7%. Besides, the AC50 under setting [2] is 5.8 µM [falling, partial curve].

Turning to `Cc1ccc(OCC(=O)N2CCC(Cc3ccccc3)CC2)c([N+](=O)[O-])n1`, the cell number change is -5.01%. The AC50 under setting [2] is 2.91 µM [rising, single point].

For `O=C(CSc1ccc2nnc(-c3cccnc3)n2n1)N1CCc2ccccc21`, under setting [1], the AC50 was 0.259 µM [rising, partial curve, poor fit].

Regarding `COc1ccc(N2C(=O)C3C(c4ccc(C(=O)O)cc4)NC(Cc4ccccc4)(C(=O)O)C3C2=O)c([N+](=O)[O-])c1` (centres undefined), the cell number change came to 148%. For the same compound, the AC50 under setting [1] was 23.1 µM [rising, partial curve]. Besides, the AC50 under setting [2] is 29.1 µM [rising, single point].

As to `Cc1ccc(-c2n[nH]c3c2CCC3)cc1`, the cell number change was -36.6%. Moreover, the AC50 under setting [1] was 20.6 µM [falling, single point]. Also, the AC50 under setting [2] is 18.4 µM [falling, single point].

As for `CCCOc1ccc(C(=O)N2CCN(c3ccc(N)cc3Cl)CC2)cc1`, the AC50 under setting [1] was 1.3 µM [rising, partial curve] and the AC50 under setting [2] was 6.51 µM [rising, single point].

For `CC(C)Cn1c([N+](=O)[O-])nc2c1c(=O)[nH]c(=O)n2C`, the cell number change was -50.4%. Also, under setting [1], the AC50 is 25.9 µM [falling, partial curve, poor fit]. Besides, under setting [2], the AC50 was 9.2 µM [falling, partial curve].

On to `Cn1c(NC(=O)c2cc(Cl)ccc2Cl)cc(=O)n(C)c1=O`, for which the cell number change is 17%. The AC50 under setting [1] is 0.731 µM [rising, full curve, poor fit]. Also, under setting [2], the AC50 was 14.6 µM [rising, partial curve].

Regarding `CCN(Cc1ccccc1)S(=O)(=O)c1ccc(C(=O)N(CCCN(C)C)c2nc3cc4c(cc3s2)OCO4)cc1`, the cell number change came out at 7.17%. For the same compound, the AC50 under setting [2] is 23.1 µM [falling, single point].

In the case of `CCN(CC)c1ccc(/C=N/NC(=O)c2cnccn2)c(O)c1`, the cell number change is 5.76%. Under setting [1], the AC50 was 4.61 µM [falling, single point].

Consider `O=C1CN(C(=O)N[C@@H](Cc2ccccc2)C(=O)N[C@H](C(=O)O)c2ccccc2)c2ccccc2N1`, for which the cell number change is 3.82%.

Regarding `OC1CCN(Cc2cccc3ccccc23)CC1`, the cell number change came out at 0.903%. For the same compound, the AC50 under setting [2] is 1.16 µM [falling, full curve, poor fit].

On to `CCc1ccc2c(c1)c1nc(C)sc1n2CC`, for which the AC50 under setting [2] was 0.00461 µM [rising, full curve, poor fit].

Consider `CC1CC(C)CN(C(=O)CNC(=O)c2ccc3ccccc3c2)C1` (centres undefined), for which the cell number change amounted to 35.9%. Moreover, under setting [1], the AC50 is 0.794 µM [rising, full curve, poor fit]. In addition, the AC50 under setting [2] is 8.91 µM [rising, partial curve].

`CC(C)c1nc2oc3c(N4CCN(C)CC4)ncnc3c2c2c1CCC2`: the cell number change came out at 2.08%. Also, the AC50 under setting [2] was 0.00411 µM [falling, full curve, poor fit].

Take `C=CCN(CC=C)C(=O)Nc1cc(Cl)ccc1OC`: the cell number change is -2.65%. Moreover, the AC50 under setting [2] was 9.2 µM [rising, single point].

For the compound `COc1ccc(C2NS(=O)(=O)OCC2C)cc1` (centres undefined), the cell number change came to 27.8%.

Turning to `Cc1cc(C(=O)CCl)c(C)n1CCc1ccc(Cl)cc1`, the cell number change is -38.8%.

For the compound `CN1CCN(C(=O)c2ccc3c(c2)N(Cc2ccc(F)cc2)C(=O)c2ccccc2S3=O)CC1` (centres undefined), the cell number change is -2.59%.

`CCNC(=S)NNC(=O)c1cc(-c2cccc(OC)c2)nc2ccccc12`: the AC50 under setting [1] was 2.31 µM [rising, partial curve].

Regarding `Cc1ccc2nc(-c3ccc(SCC(=O)Nc4ccc5c(c4)OCCO5)nc3)[nH]c2c1`, the cell number change is -51.2%. In addition, the AC50 under setting [1] was 32.6 µM [falling, single point]. The AC50 under setting [2] is 2.91 µM [falling, partial curve].

Take `CCOCCCN1C(=O)CN(C2CCC(C)CC2)C(=O)C1c1ccc(C)cc1` (centres undefined): the AC50 under setting [2] is 5.17 µM [falling, partial curve].

In the case of `Cc1cc(C(=O)Nc2cccc(-c3ccc(N4CCOCC4)nn3)c2)ccc1[N+](=O)[O-]`, the cell number change was 32.6%. The AC50 under setting [1] was 9.2 µM [rising, single point].

Take `COc1ccc(N2CC(C(=O)Nc3cccc(S(=O)(=O)N4CCCC4)c3)CC2=O)c(OC)c1` (centres undefined): the cell number change turned out to be 54.1%. Besides, under setting [2], the AC50 was 6.51 µM [falling, single point].

Consider `Cc1cnc(=O)[nH]c1SCc1ccc([N+](=O)[O-])cc1`, for which the cell number change was -12.8%.

In the case of `O=C(/C=C/c1ccc(Br)o1)Nc1nnc(C2CC2)s1`, the cell number change was 32.4%. Further, the AC50 under setting [1] was 32.6 µM [rising, partial curve, poor fit].

With `Cc1ccc(C)c(N(C(=O)c2csnn2)C(C(=O)NC2CCCC2)c2ccncc2)c1` (centres undefined), the cell number change was -1.9%.

As for `Brc1cccc(-c2nnc(SCc3ccon3)n2-c2ccccc2)c1`, the cell number change was 2.86%. Under setting [1], the AC50 is 0.00461 µM [falling, full curve, poor fit]. For the same compound, under setting [2], the AC50 is 4.11 µM [rising, single point].

Turning to `COc1ccc(C(=O)N2CCN(c3ccc([N+](=O)[O-])c(NCCc4ccc(OC)c(OC)c4)c3)CC2)cc1`, the cell number change was -49.1%. Also, the AC50 under setting [1] was 13 µM [falling, partial curve]. Moreover, the AC50 under setting [2] is 8.2 µM [falling, partial curve, poor fit].

`CCN1C(=O)[C@H]2[C@@H](c3ccc(C)cc3)N3C(=O)N(c4ccccc4)C(=O)[C@@]3(Cc3ccccc3)[C@H]2C1=O`: the cell number change came out at 33.7%. Besides, the AC50 under setting [1] is 1.64 µM [rising, full curve].

For the compound `Cc1cc(O)c(C(=O)/C=C/c2ccccc2)c(=O)o1`, the cell number change was determined as 18%. Under setting [2], the concentration at half-maximal activity (AC50) is 6.51 µM [falling, single point].

Turning to `CC(=O)c1ccc(NC(=O)CSc2nnc(-c3ccncc3)o2)cc1`, the cell number change turned out to be 19.2%.

Turning to `CCOC(=O)c1c(C)[nH]c(C(=O)COC(=O)/C=C/c2ccc(O)c(OC)c2)c1C`, the cell number change is -10.5%.

Turning to `COc1cccc(C(=O)Nc2cc(C(=O)NCc3ccc(C)cc3)ccc2N2CCC3(CC2)CC(c2cccc(Br)c2)=NO3)c1`, the cell number change was 32.8%. The AC50 under setting [1] is 32.6 µM [rising, single point]. Also, under setting [2], the AC50 was 29.1 µM [rising, single point].

As for `Cc1nnsc1C(=O)Nc1ccc(S(=O)(=O)N2CCCC(C)C2)cc1` (centres undefined), the cell number change worked out at 12.2%.

The values are drawn from PubChem BioAssay AID2685 (National Center for Advancing Translational Sciences (NCATS), 2010).
